Experimental data: PubChem BioAssay AID1487 (National Center for Advancing Translational Sciences (NCATS), 2009)
The other results are listed elsewhere or left out. The main result of the screen is listed elsewhere. These columns were measured beside it and carry no call. Compounds called inactive in the main read-out are mostly missing here. Potencies come from curve fits of mixed quality, noted in brackets.

Test: qHTS Assay for Modulators of Lamin A Splicing
Conditions: HeLa LMNA splicing GFP/RFP minigene ratio, 48 h
How it was run: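 S3 HeLa stable clones carrying a lamin A-EGFP splicing minigene plus DsRed2 were seeded at 600 cells/well in Opti-MEM with 2% FBS, pin-dosed and incubated 48 h at 37°C. Acumen cytometry (488 nm) gave the GFP/RFP total-intensity ratio.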

[1] = measured here: GFP splicing reporter channel
[2] = measured here: RFP viability control channel

With `CCOC(=O)c1nc2sc3c(c2c(=O)n1C(C)C(=O)OCC)CCCC3` (centres undefined) as the compound, how does the AC50 [1] read?
Its AC50 is 0.501 µM [rising, full curve, poor fit].

What does the source list for `Cc1cccc(-n2c3nc(=O)[nH]c(=O)c-3cc3cc([N+](=O)[O-])ccc32)c1`?
AC50 [1]: 15.8 µM [rising, single point]; AC50 [2]: 17.8 µM [rising, single point]

With `O=C(NCc1ccccc1)c1noc2c1CCCC2` as the compound, how does the AC50 [2] read?
Its AC50 is 31.6 µM [rising, single point].

For `CCN(CC)C(=O)CSc1ncccc1-c1nc2ccccc2[nH]1`, which AC50 [2] is on record?
The AC50 was 0.447 µM [falling, full curve, poor fit].

Which AC50 [2] does the source give for `Cc1nnc(NC(=O)c2ccc(C)c(S(=O)(=O)N3CCCCCC3)c2)s1` here?
Its AC50 is 35.5 µM [rising, single point].

For `CN1CCN(c2nc(-c3ccc(N(C)C)cc3)nc3ccccc23)CC1`, which AC50 [1] is on record?
Its AC50 is 28.2 µM [falling, single point].

Which AC50 [1] does the source give for `CC(C)(C)c1ccc(-c2nc(-c3ccncc3)no2)cc1` here?
Its AC50 is 35.5 µM [rising, single point].

And the AC50 [2]?
The AC50 was 35.5 µM [rising, single point].

For `Cn1c(N)c(C(=O)COC(=O)c2cc(S(=O)(=O)N3CCCCC3)ccc2Cl)c(=O)n(C)c1=O`, which AC50 [1] is on record?
Its AC50 is 8.91 µM [rising, partial curve].

And the AC50 [2]?
The AC50 was 11.2 µM [rising, single point].

Which results are given for `Cc1noc(C)c1C(=O)N1CC(C)OC(C)C1` (centres undefined)?
AC50 [1]: 2.51 µM [falling, partial curve, poor fit]; AC50 [2]: 1.78 µM [falling, full curve, poor fit]

Which AC50 [2] does the source give for `CCOC(=O)c1cccc(NC(=O)Cc2ccc(NC(=O)N3CCCCc4ccccc43)cc2)c1` here?
The AC50 was 11.2 µM [rising, single point].

With `OCCCNC(c1ccccc1)c1ccc(O)cc1` (centres undefined) as the compound, how does the AC50 [2] read?
Its AC50 is 35.5 µM [rising, single point].

Which AC50 [1] does the source give for `CC1(C)CC(c2csc(N)n2)CCO1` (centres undefined) here?
Its AC50 is 14.1 µM [rising, partial curve].

Which AC50 [1] does the source give for `CC1(OC(=O)C2CCCC2)C(=O)C=C2C=C(c3ccsc3)N(Cc3ccco3)C=C2C1=O` (centres undefined) here?
Its AC50 is 0.00112 µM [rising, full curve, poor fit].

With `O=C(c1cc(-c2ccccc2)nc2ccccc12)N1CCCc2ccccc21` as the compound, how does the AC50 [2] read?
Its AC50 is 17.8 µM [rising, single point].

For `CCOC(=O)c1ccc(N2CCN(c3cccc(Cl)c3)CC2)c(NC(=O)Nc2ccc(Cl)cc2)c1`, which AC50 [1] is on record?
The AC50 was 7.08 µM [falling, full curve, poor fit].

For `O=C(NNC1=C(C(=O)C(F)(F)F)CCC1)c1ccc(Cl)cc1`, which AC50 [1] is on record?
Its AC50 is 35.5 µM [rising, single point].

And the AC50 [2]?
Its AC50 is 35.5 µM [rising, single point].

Which AC50 [1] does the source give for `CCOC(=O)c1[nH]c(C)c(CCC(=O)N2CCN(c3cc(Cl)ccc3C)CC2)c1C` here?
The AC50 was 22.4 µM [rising, partial curve, poor fit].

And the AC50 [2]?
The AC50 was 35.5 µM [rising, partial curve, poor fit].

For `COc1ccc(Cl)cc1NC(=O)C1CCCN(c2cc(C)nc3ncnn23)C1` (centres undefined), which AC50 [2] is on record?
The AC50 was 2.24 µM [rising, partial curve, poor fit].

For `COc1ccc(-c2noc(N3CCN(c4cccc(Cl)c4)CC3)n2)cc1OC`, which AC50 [1] is on record?
The AC50 was 7.94 µM [falling, full curve, poor fit].

Which AC50 [2] does the source give for `CCOC(=O)N1CCC(C(=O)Nc2ccc(OCC)cc2)CC1` here?
Its AC50 is 3.55 µM [rising, partial curve].

With `CCc1sc(Nc2ccc(Cl)cc2)nc1-c1cc2cccc(OC)c2oc1=O` as the compound, how does the AC50 [2] read?
The AC50 was 0.501 µM [rising, partial curve, poor fit].

Which results are given for `CCCCC(c1nnnn1Cc1ccco1)N1CCN(c2nc3ccccc3s2)CC1` (centres undefined)?
AC50 [1]: 10 µM [rising, partial curve]; AC50 [2]: 14.1 µM [rising, partial curve]

For `CN(C)c1ccnc(SCc2ccccc2Cl)c1C#N`, which AC50 [1] is on record?
Its AC50 is 11.2 µM [rising, partial curve].

And the AC50 [2]?
Its AC50 is 11.2 µM [rising, partial curve].

For `COc1ccc(NC(=O)C2CCN(c3cc(C)nc(-c4ccccc4)n3)CC2)cc1`, which AC50 [2] is on record?
The AC50 was 17.8 µM [rising, single point].

With `O=C(NCC(c1cccnc1)N1CCN(c2ccccc2)CC1)OCc1ccccc1` (centres undefined) as the compound, how does the AC50 [1] read?
Its AC50 is 31.6 µM [rising, single point].

What about the AC50 [2] of the same compound?
Its AC50 is 31.6 µM [rising, single point].

With `Cc1ccc2c(ccc(=S)n2C)c1` as the compound, how does the AC50 [1] read?
Its AC50 is 15.8 µM [falling, single point].

Which AC50 [1] does the source give for `CC1(C)[C@@H](O)CC[C@]2(C)[C@H]3C(=O)C=C4[C@@H]5C[C@@](C)(C(=O)O)CC[C@]5(C)CC[C@@]4(C)[C@]3(C)CC[C@@H]12` here?
Its AC50 is 35.5 µM [falling, single point].

And the AC50 [2]?
Its AC50 is 0.0891 µM [falling, full curve, poor fit].

What does the source list for `Cc1ccc(CN2CCC(CNC(=O)c3cc4ccc5cccnc5c4[nH]3)CC2)cc1`?
AC50 [1]: 17.8 µM [falling, partial curve, poor fit]; AC50 [2]: 11.2 µM [falling, partial curve]

Which AC50 [2] does the source give for `CCN(CC)C(=O)COc1ccc(-c2nnc(N3CCCCC3)c3ccccc23)cc1` here?
Its AC50 is 22.4 µM [rising, single point].

Which AC50 [2] does the source give for `Cc1ccc(Nc2nnc(SCC(=O)Nc3cccnc3Cl)s2)cc1C` here?
Its AC50 is 20 µM [rising, single point].

For `O=C(Nc1ccc2nc(SCc3ccccc3)sc2c1)c1cccc(F)c1`, which AC50 [1] is on record?
The AC50 was 6.31 µM [rising, single point].

Which AC50 [1] does the source give for `Fc1ccc(CNC(=S)Nc2cccc(Cl)c2)cc1` here?
Its AC50 is 11.2 µM [rising, partial curve, poor fit].

What about the AC50 [2] of the same compound?
The AC50 was 17.8 µM [rising, single point].

With `CCNC(=O)C12CCC(C)(c3nc4cc(C)c(C)cc4nc31)C2(C)C` (centres undefined) as the compound, how does the AC50 [2] read?
Its AC50 is 3.55 µM [falling, full curve, poor fit].

For `CCOCCCNC(=S)NCCCNc1nc2c(C)cc(C)cc2cc1C#N`, which AC50 [1] is on record?
The AC50 was 0.0708 µM [falling, full curve, poor fit].

What about the AC50 [2] of the same compound?
Its AC50 is 0.0794 µM [falling, full curve].

Which results are given for `CCn1c(-c2csc(C(C)C)c2)n[nH]c1=S`?
AC50 [1]: 0.00501 µM [falling, full curve, poor fit]; AC50 [2]: 0.00447 µM [falling, full curve, poor fit]

With `CCOc1ccc2ncc(S(=O)(=O)c3ccc(C)cc3)c(N3CCC4(CC3)OCCO4)c2c1` as the compound, how does the AC50 [2] read?
Its AC50 is 11.2 µM [rising, single point].

Which AC50 [1] does the source give for `CN(C)/C=N/c1nc2nccc(-c3ccc(Cl)cc3)n2n1` here?
Its AC50 is 15.8 µM [falling, single point].

With `COc1ccc2c(c1)c(CC(=O)O)c(C)n2Cc1ccc(Cl)cc1` as the compound, how does the AC50 [2] read?
The AC50 was 0.00447 µM [falling, full curve, poor fit].

With `COc1ccc(OC)c(/C=C/C(=O)OCC(=O)c2c(N)n(C)c(=O)n(C)c2=O)c1` as the compound, how does the AC50 [2] read?
The AC50 was 2 µM [rising, full curve, poor fit].

With `COC(=O)[C@@H](N)Cc1ccc(O)c(O)c1` as the compound, how does the AC50 [2] read?
The AC50 was 7.94 µM [falling, partial curve, poor fit].

Which AC50 [1] does the source give for `CCc1ccc(C(=O)NNc2ccc(Cl)cc2)cc1` here?
The AC50 was 4.47 µM [rising, full curve, poor fit].

Which AC50 [1] does the source give for `CC1=C(C(=O)Nc2ccccc2C)C(c2ccc(C)o2)NC(=S)N1` (centres undefined) here?
Its AC50 is 10 µM [falling, partial curve, poor fit].

Which AC50 [1] does the source give for `O=C(CCc1ccccc1)NNc1ccc(F)cc1` here?
The AC50 was 0.891 µM [rising, partial curve].

What does the source list for `CCOC(=O)N1CCC(NC(=O)c2cc(C(=O)Nc3ccc(OC)c(OC)c3)ccc2CO)CC1`?
AC50 [1]: 35.5 µM [rising, single point]; AC50 [2]: 14.1 µM [rising, single point]

What does the source list for `CCOC(=O)C1=C(C)NC(C)=C(C(=O)OC)[C@@H]1c1cccc([N+](=O)[O-])c1`?
AC50 [1]: 3.16 µM [falling, single point]; AC50 [2]: 3.16 µM [falling, single point]

Which AC50 [2] does the source give for `CCN(CC)S(=O)(=O)c1cc(NS(=O)(=O)c2cccc(Cl)c2)ccc1C` here?
Its AC50 is 22.4 µM [rising, single point].

With `Cc1ccc(OCC(=O)N/N=C/c2cn[nH]c2-c2ccc(Cl)c(Cl)c2)cc1` as the compound, how does the AC50 [1] read?
The AC50 was 20 µM [rising, partial curve, poor fit].

What about the AC50 [2] of the same compound?
The AC50 was 11.2 µM [rising, partial curve].

What does the source list for `COCCNC(=O)C(=O)NCC(c1cccnc1)N1CCN(c2ccccc2OC)CC1` (centres undefined)?
AC50 [1]: 28.2 µM [falling, single point]; AC50 [2]: 35.5 µM [falling, single point]

For `COc1cc(C(=O)NCC(c2cccnc2)N2CCc3ccccc3C2)cc(OC)c1OC` (centres undefined), which AC50 [2] is on record?
Its AC50 is 0.00794 µM [falling, full curve, poor fit].

For `COc1ccc(S(=O)(=O)n2cnc3cc(C)c(C)cc32)cc1C`, which AC50 [2] is on record?
Its AC50 is 7.08 µM [rising, partial curve].

Which AC50 [1] does the source give for `S=c1[nH]nc(-c2ccc(Br)cc2)n1Cc1ccccc1` here?
The AC50 was 14.1 µM [falling, single point].

And the AC50 [2]?
Its AC50 is 0.00794 µM [falling, full curve, poor fit].

Which AC50 [2] does the source give for `CCC(CC)C(=O)OCC(=O)Nc1cc(OC)c([N+](=O)[O-])cc1C` here?
Its AC50 is 17.8 µM [rising, partial curve, poor fit].

With `O=c1oc2ccccc2nc1/C=C(O)/C=C\c1ccccc1` as the compound, how does the AC50 [2] read?
Its AC50 is 31.6 µM [rising, single point].

For `c1ccc2cc(OCc3nc4ccccc4[nH]3)ccc2c1`, which AC50 [2] is on record?
Its AC50 is 31.6 µM [rising, single point].

Which AC50 [2] does the source give for `Cc1occc1-c1nnc(SCC(=O)Nc2ccccc2N2CCCCC2)n1C` here?
The AC50 was 35.5 µM [rising, single point].
